# The supplement of paper PMC4604168 (melanoma cell lines)
# Some of the results follow. Repeats are few or missing, and single values can be far off.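 Imaging used 1,536-well plates; nuclei positive for cleaved PARP by antibody were divided by total DNA-stained nuclei to yield the apoptosis fraction. Doses for screening kept most cells viable, and cell lines differ markedly in resting and induced cleaved-PARP levels.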
# Experiments:
# Test in all cases: cleaved PARP positive nuclei fraction relative to DMSO control; melanoma cells; higher = more apoptosis
# Conditions in all cases: library dose: low library concentration; 72 h
# 501Mel = tested on: 501Mel
# A101D = tested on: A101D
# A2058 = tested on: A2058
# A375 = tested on: A375
# C32 = tested on: C32
# CBRC008 = tested on: CBRC008 (line from a melanoma biopsy)
# CBRC014 = tested on: CBRC014 (line from a melanoma biopsy)
# CBRC016 = tested on: CBRC016 (line from a melanoma biopsy)
# CBRC017 = tested on: CBRC017 (line from a melanoma biopsy)
Compound,cleaved PARP positive nuclei fraction (501Mel),cleaved PARP positive nuclei fraction (A101D),cleaved PARP positive nuclei fraction (A2058),cleaved PARP positive nuclei fraction (A375),cleaved PARP positive nuclei fraction (C32),cleaved PARP positive nuclei fraction (CBRC008),cleaved PARP positive nuclei fraction (CBRC014),cleaved PARP positive nuclei fraction (CBRC016),cleaved PARP positive nuclei fraction (CBRC017)
"CC1(C)CCC(c2ccc(Cl)cc2)=C(CN2CCN(c3ccc(C(=O)NS(=O)(=O)c4ccc(N[C@H](CCN5CCOCC5)CSc5ccccc5)c(S(=O)(=O)C(F)(F)F)c4)cc3)CC2)C1 + CC(C)C[C@H](NC(=O)[C@H](Cc1ccccc1)NC(=O)c1cnccn1)B(O)O [Bortezomib] (first compound 0.4 µM, partner dose 0.001 µM)",8900%,516%,82.4%,225%,195%,876%,4800%,720%,19200%
"COc1ccc(C2=N[C@@H](c3ccc(Cl)cc3)[C@@H](c3ccc(Cl)cc3)N2C(=O)N2CCNC(=O)C2)c(OC(C)C)c1 [Nutlin-3] + Nc1nc(F)nc2c1ncn2[C@@H]1O[C@H](CO)[C@@H](O)[C@@H]1O [fludarabine] (first compound 0.1 µM, partner dose 0.2 µM)",13000%,152%,103%,5490%,77.5%,155%,220%,175%,97.9%
"C[C@]1(O)C[C@@H](c2nc(-c3ccc4ccc(-c5ccccc5)nc4c3)c3c(N)nccn32)C1 + CCN(CC)CCNC(=O)c1c(C)[nH]c(/C=C2\C(=O)Nc3ccc(F)cc32)c1C [sunitinib] (first compound 0.4 µM, partner dose 0.4 µM)",103%,102%,65.1%,264%,80%,135%,121%,47.9%,138%
"NC1(c2ccc(-c3nc4ccn5c(=O)[nH]nc5c4cc3-c3ccccc3)cc2)CCC1 + C[C@]1(c2nc3c(C(N)=O)cccc3[nH]2)CCCN1 [Veliparib] (first compound 0.4 µM, partner dose 1.4 µM)",97.5%,79.8%,63%,140%,84%,51.3%,79%,86.8%,88.3%
"NC(=O)c1ccc(N(C(N)=O)c2c(F)cccc2F)nc1-c1ccc(F)cc1F + O=C(O)[C@@H]1[O][Sb](=[O])([O][Sb]2(=[O])[O][C@H]([C@H](O)CO)[C@H](O)[C@H](C(=O)O)[O]2)[O][C@H]([C@H](O)CO)[C@@H]1O [stibogluconate] (first compound 0.4 µM, partner dose 2 µM)",105%,83.8%,39.9%,55.7%,68.6%,51.9%,92.5%,87.3%,109%
"Cn1cnc2c(F)c(Nc3ccc(Br)cc3Cl)c(C(=O)NOCCO)cc21 [selumetinib] + Cn1sc(=O)n(Cc2ccccc2)c1=O [TDZD-8] (first compound 0.015 µM, partner dose 0.4 µM)",1370%,106%,223%,62%,219%,177%,88.8%,103%,128%
"CS(=O)(=O)c1ccc(C(=O)Nc2ccc(Cl)c(-c3ccccn3)c2)c(Cl)c1 [vismodegib] + C[C@]1(c2nc3c(C(N)=O)cccc3[nH]2)CCCN1 [Veliparib] (first compound 1 µM, partner dose 1.4 µM)",84.2%,160%,63.9%,59.1%,79.7%,42.5%,97.4%,111%,91%
"COc1ccc(C2=N[C@@H](c3ccc(Cl)cc3)[C@@H](c3ccc(Cl)cc3)N2C(=O)N2CCNC(=O)C2)c(OC(C)C)c1 [Nutlin-3] + CNC(=O)c1cc(Oc2ccc(NC(=O)Nc3ccc(Cl)c(C(F)(F)F)c3)cc2)ccn1 [sorafenib] (first compound 0.1 µM, partner dose 0.4 µM)",56.9%,115%,81.9%,79.7%,92.6%,121%,79.5%,118%,78.4%
"C[C@]1(O)C[C@@H](c2nc(-c3ccc4ccc(-c5ccccc5)nc4c3)c3c(N)nccn32)C1 + CS(=O)(=O)CCNCc1ccc(-c2ccc3ncnc(Nc4ccc(OCc5cccc(F)c5)c(Cl)c4)c3c2)o1 [lapatinib] (first compound 0.4 µM, partner dose 0.8 µM)",72.8%,244%,223%,153%,82.9%,177%,107%,86.4%,84%
"C[C@@H](N)c1ccc(C(=O)Nc2ccnc3[nH]ccc23)cc1 + COCC[n+]1c2c(n(Cc3cnccn3)c1C)C(=O)c1ccccc1C2=O [YM155] (first compound 0.4 µM, partner dose 0.0004 µM)",55.5%,45%,115%,97.5%,92.9%,316%,118%,111%,90.1%
"COc1ccc(C2=N[C@@H](c3ccc(Cl)cc3)[C@@H](c3ccc(Cl)cc3)N2C(=O)N2CCNC(=O)C2)c(OC(C)C)c1 [Nutlin-3] + COCC[n+]1c2c(n(Cc3cnccn3)c1C)C(=O)c1ccccc1C2=O [YM155] (first compound 0.1 µM, partner dose 0.0004 µM)",177%,94%,120%,75.1%,89.4%,126%,101%,58.7%,251%
"Cn1cnc2c(F)c(Nc3ccc(Br)cc3Cl)c(C(=O)NOCCO)cc21 [selumetinib] + Clc1ccc(Nc2nnc(Cc3ccncc3)c3ccccc23)cc1 [vatalanib] (first compound 0.015 µM, partner dose 2 µM)",756%,56.5%,120%,189%,155%,273%,127%,46.1%,131%
"CS(=O)(=O)c1ccc(C(=O)Nc2ccc(Cl)c(-c3ccccn3)c2)c(Cl)c1 [vismodegib] + Nc1cccc2c1CN(C1CCC(=O)NC1=O)C2=O [lenalidomide] (first compound 1 µM, partner dose 1 µM)",99.5%,75%,120%,172%,74.8%,170%,107%,44.6%,98.5%
"CCCCCCCCc1ccc(CCC(N)(CO)CO)cc1 [fingolimod] + Nc1cccc2c1CN(C1CCC(=O)NC1=O)C2=O [lenalidomide] (first compound 2 µM, partner dose 1 µM)",156%,45.9%,308%,394%,74%,101%,91.6%,83.8%,124%
"CC1(C)CCC(c2ccc(Cl)cc2)=C(CN2CCN(c3ccc(C(=O)NS(=O)(=O)c4ccc(N[C@H](CCN5CCOCC5)CSc5ccccc5)c(S(=O)(=O)C(F)(F)F)c4)cc3)CC2)C1 + Cc1nc(Nc2ncc(C(=O)Nc3c(C)cccc3Cl)s2)cc(N2CCN(CCO)CC2)n1 [dasatanib] (first compound 0.4 µM, partner dose 0.004 µM)",85.2%,193%,117%,266%,113%,371%,635%,1430%,574%
"C[C@]1(O)C[C@@H](c2nc(-c3ccc4ccc(-c5ccccc5)nc4c3)c3c(N)nccn32)C1 + C[C@]1(c2nc3c(C(N)=O)cccc3[nH]2)CCCN1 [Veliparib] (first compound 0.4 µM, partner dose 1.4 µM)",134%,48.9%,77.6%,210%,93.8%,51.2%,100%,36%,85.5%
"C[C@@H](N)c1ccc(C(=O)Nc2ccnc3[nH]ccc23)cc1 + Nc1nc(F)nc2c1ncn2[C@@H]1O[C@H](CO)[C@@H](O)[C@@H]1O [fludarabine] (first compound 0.4 µM, partner dose 0.2 µM)",11800%,107%,242%,6850%,78.5%,89.8%,122%,41.9%,133%
"Cn1cnc2c(F)c(Nc3ccc(Br)cc3Cl)c(C(=O)NOCCO)cc21 [selumetinib] + NC(=O)c1ccc(N(C(N)=O)c2c(F)cccc2F)nc1-c1ccc(F)cc1F [VX702] (first compound 0.015 µM, partner dose 0.4 µM)",575%,50.6%,67.5%,317%,371%,114%,111%,172%,155%
"NC1(c2ccc(-c3nc4ccn5c(=O)[nH]nc5c4cc3-c3ccccc3)cc2)CCC1 + CNC(=O)c1cc(Oc2ccc(NC(=O)Nc3ccc(Cl)c(C(F)(F)F)c3)cc2)ccn1 [sorafenib] (first compound 0.4 µM, partner dose 0.4 µM)",163%,184%,94.5%,50.5%,67.1%,95.7%,95.1%,143%,87.6%
"C[C@]1(O)C[C@@H](c2nc(-c3ccc4ccc(-c5ccccc5)nc4c3)c3c(N)nccn32)C1 + CN1CCN(c2ccc3nc(-c4c(N)c5c(F)cccc5[nH]c4=O)[nH]c3c2)CC1 [Dovitinib] (first compound 0.4 µM, partner dose 0.1 µM)",544%,130%,124%,304%,71.4%,128%,110%,36.9%,95.3%
"NC1(c2ccc(-c3nc4ccn5c(=O)[nH]nc5c4cc3-c3ccccc3)cc2)CCC1 + Cn1c(=O)n(-c2ccc(C(C)(C)C#N)cc2)c2c3cc(-c4cnc5ccccc5c4)ccc3ncc21 [NVP-BEZ235] (first compound 0.4 µM, partner dose 0.004 µM)",96.7%,118%,104%,547%,84%,150%,84%,43.9%,74.4%
"CCCCCCCCc1ccc(CCC(N)(CO)CO)cc1 [fingolimod] + COCC[n+]1c2c(n(Cc3cnccn3)c1C)C(=O)c1ccccc1C2=O [YM155] (first compound 2 µM, partner dose 0.0004 µM)",155%,123%,168%,963%,77.6%,24.5%,97.2%,32.5%,112%

# Part of the list above, bar-delimited:
Compound | cleaved PARP positive nuclei fraction (501Mel) | cleaved PARP positive nuclei fraction (A101D) | cleaved PARP positive nuclei fraction (A2058) | cleaved PARP positive nuclei fraction (A375) | cleaved PARP positive nuclei fraction (C32) | cleaved PARP positive nuclei fraction (CBRC008) | cleaved PARP positive nuclei fraction (CBRC014) | cleaved PARP positive nuclei fraction (CBRC016) | cleaved PARP positive nuclei fraction (CBRC017)
CC1(C)CCC(c2ccc(Cl)cc2)=C(CN2CCN(c3ccc(C(=O)NS(=O)(=O)c4ccc(N[C@H](CCN5CCOCC5)CSc5ccccc5)c(S(=O)(=O)C(F)(F)F)c4)cc3)CC2)C1 + CC(C)C[C@H](NC(=O)[C@H](Cc1ccccc1)NC(=O)c1cnccn1)B(O)O [Bortezomib] (first compound 0.4 µM, partner dose 0.001 µM) | 8900% | 516% | 82.4% | 225% | 195% | 876% | 4800% | 720% | 19200%
Cn1cnc2c(F)c(Nc3ccc(Br)cc3Cl)c(C(=O)NOCCO)cc21 [selumetinib] + Clc1ccc(Nc2nnc(Cc3ccncc3)c3ccccc23)cc1 [vatalanib] (first compound 0.015 µM, partner dose 2 µM) | 756% | 56.5% | 120% | 189% | 155% | 273% | 127% | 46.1% | 131%
C[C@]1(O)C[C@@H](c2nc(-c3ccc4ccc(-c5ccccc5)nc4c3)c3c(N)nccn32)C1 + C[C@]1(c2nc3c(C(N)=O)cccc3[nH]2)CCCN1 [Veliparib] (first compound 0.4 µM, partner dose 1.4 µM) | 134% | 48.9% | 77.6% | 210% | 93.8% | 51.2% | 100% | 36% | 85.5%
Cn1cnc2c(F)c(Nc3ccc(Br)cc3Cl)c(C(=O)NOCCO)cc21 [selumetinib] + NC(=O)c1ccc(N(C(N)=O)c2c(F)cccc2F)nc1-c1ccc(F)cc1F [VX702] (first compound 0.015 µM, partner dose 0.4 µM) | 575% | 50.6% | 67.5% | 317% | 371% | 114% | 111% | 172% | 155%
C[C@]1(O)C[C@@H](c2nc(-c3ccc4ccc(-c5ccccc5)nc4c3)c3c(N)nccn32)C1 + CN1CCN(c2ccc3nc(-c4c(N)c5c(F)cccc5[nH]c4=O)[nH]c3c2)CC1 [Dovitinib] (first compound 0.4 µM, partner dose 0.1 µM) | 544% | 130% | 124% | 304% | 71.4% | 128% | 110% | 36.9% | 95.3%
CCCCCCCCc1ccc(CCC(N)(CO)CO)cc1 [fingolimod] + COCC[n+]1c2c(n(Cc3cnccn3)c1C)C(=O)c1ccccc1C2=O [YM155] (first compound 2 µM, partner dose 0.0004 µM) | 155% | 123% | 168% | 963% | 77.6% | 24.5% | 97.2% | 32.5% | 112%
